Source: PubChem BioAssay AID651640 (Broad Institute, 2012)
In all, about 350,000 compounds went through this assay and about 6,000 (1.7%) were called active. Inconclusive means that the source gave no clear call. Such entries were picked first, then a sample of the others. Cut-off read from the data, not from the text of the source: active = CPE inhibition above about 20% (passing the limit was not always enough); inconclusive = no clear call, values can overlap the other calls; tested in BHK-21 cells.

Assay: protection of cells from dengue 2 killing – plate reader, single concentration, primary screen (AID 651640);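 note: 0% = median of neutral control wells and 100% = median of positive control wells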
Conditions: DENV2-infected cells, cytopathic effect rescue, at 9.99 µM, active compounds read high
For `Cn1ccnc1SCC(=O)Nc1cccc(C#N)c1`, the CPE inhibition was active: 87.3%. In the case of `CNc1ccccc1C(=O)OCC(=O)c1ccc(F)cc1`, the CPE inhibition is reported as inactive: 0.046%. With `CC(C)(C)OC(=O)C[C@H]1C/C=C\C[C@@H](CC(=O)N(CCO)Cc2ccccc2)C(=O)N[C@@H](c2ccccc2)COC1=O` the CPE inhibition was inconclusive: 48.8%. In the case of `O=C(c1ccc(Cl)c(Cl)c1)N1CCC(=O)N(C(CO)Cc2ccccc2)CC1` (centres undefined), the CPE inhibition is reported as inconclusive: 31.2%. With `C[C@H]1CN([C@@H](C)CO)C(=O)c2cccc(NC(=O)c3nc4ccccc4s3)c2O[C@@H]1CN(C)S(=O)(=O)c1ccc(F)cc1` the CPE inhibition was inactive: 9.38%. With `CCOc1ccc(S(=O)(=O)N2CCOCC2)cc1NC(=O)CSCC(=O)Nc1ccc(C)cc1` the CPE inhibition was inconclusive: 21.4%. For `CSCC[C@H](NC(=O)[C@@H]1CSC2c3ccccc3C(=O)N21)C(=O)NCc1ccco1` (some centres undefined), the CPE inhibition was inconclusive: 36.5%. In the case of `C/C=C/c1cnc2c(c1)C(=O)N([C@H](C)CO)C[C@H](C)[C@H](CN(C)C(=O)Cc1ccccc1)O2`, the CPE inhibition is reported as inactive: 11.9%. With `C[C@@H]1CN([C@H](C)CO)C(=O)c2cccc(NC(=O)c3cnccn3)c2O[C@H]1CN(C)C(=O)Nc1ccc(C(F)(F)F)cc1` the CPE inhibition was inconclusive: 20.3%. In the case of `O=C(NCc1ccco1)Nc1nnc([C@H]2C[C@H](O)[C@@H](CO)O2)s1`, the CPE inhibition is reported as inconclusive: 20.3%. With `C[C@H]1CN([C@@H](C)CO)S(=O)(=O)c2ccc(-c3ccccc3)cc2O[C@@H]1CN(C)Cc1ccncc1` the CPE inhibition was inactive: -12.7%. With `CC(C)c1cccc(C(C)C)c1NC(=O)COC(=O)C1CCC1` the CPE inhibition was inconclusive: 37.8%. In the case of `CCc1ccc(CN2CCC(C(=O)Nc3ccc(Oc4ccccc4)nc3)CC2)o1`, the CPE inhibition is reported as inconclusive: 23.9%. In the case of `CCOC(=O)C1CCCN(S(=O)(=O)c2ccc3c4c2CC(=O)N4CC(C)S3)C1` (centres undefined), the CPE inhibition is reported as inconclusive: 23.5%. With `O=C(NCCN1CCCC1)[C@@H]1[C@@H](CO)[C@@H]2Cn3c(cccc3=O)[C@@H]2N1C(=O)c1ccccc1` the CPE inhibition was inconclusive: 38.6%. With `CCCNC(=O)C[C@H]1CC[C@@H]2[C@H](COc3ccc(NC(=O)c4ccc5c(c4)OCO5)cc3C(=O)N2C)O1` the CPE inhibition was inactive: 3.53%. In the case of `C[C@@H]1CN([C@@H](C)CO)C(=O)c2cccc(NC(=O)c3nc4ccccc4s3)c2O[C@@H]1CN(C)C(=O)Nc1cccc2ccccc12`, the CPE inhibition is reported as inconclusive: 21.5%. For `CCCC(=O)Nc1ccc2c(c1)C(=O)N(C)[C@@H]1CC[C@@H](CC(=O)NCC3CC3)O[C@@H]1CO2`, the CPE inhibition was inconclusive: 52.5%. In the case of `Nc1cc(Cl)ccc1N1CCCCCC1`, the CPE inhibition is reported as inconclusive: 33.3%.
